For eleven substances, binding results are on record in article PMC4685312.

The chains behind the UniProt entries cited, without tags or fusion partners.
UniProt Q9H9S0: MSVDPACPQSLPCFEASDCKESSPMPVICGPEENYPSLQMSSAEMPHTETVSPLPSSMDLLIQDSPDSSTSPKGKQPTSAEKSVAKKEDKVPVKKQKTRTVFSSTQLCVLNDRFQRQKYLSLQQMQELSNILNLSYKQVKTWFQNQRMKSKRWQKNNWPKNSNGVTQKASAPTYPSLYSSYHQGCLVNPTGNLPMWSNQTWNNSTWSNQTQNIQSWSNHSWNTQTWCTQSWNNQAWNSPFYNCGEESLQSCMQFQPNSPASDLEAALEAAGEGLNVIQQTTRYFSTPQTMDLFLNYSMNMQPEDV
UniProt Q6W2J9: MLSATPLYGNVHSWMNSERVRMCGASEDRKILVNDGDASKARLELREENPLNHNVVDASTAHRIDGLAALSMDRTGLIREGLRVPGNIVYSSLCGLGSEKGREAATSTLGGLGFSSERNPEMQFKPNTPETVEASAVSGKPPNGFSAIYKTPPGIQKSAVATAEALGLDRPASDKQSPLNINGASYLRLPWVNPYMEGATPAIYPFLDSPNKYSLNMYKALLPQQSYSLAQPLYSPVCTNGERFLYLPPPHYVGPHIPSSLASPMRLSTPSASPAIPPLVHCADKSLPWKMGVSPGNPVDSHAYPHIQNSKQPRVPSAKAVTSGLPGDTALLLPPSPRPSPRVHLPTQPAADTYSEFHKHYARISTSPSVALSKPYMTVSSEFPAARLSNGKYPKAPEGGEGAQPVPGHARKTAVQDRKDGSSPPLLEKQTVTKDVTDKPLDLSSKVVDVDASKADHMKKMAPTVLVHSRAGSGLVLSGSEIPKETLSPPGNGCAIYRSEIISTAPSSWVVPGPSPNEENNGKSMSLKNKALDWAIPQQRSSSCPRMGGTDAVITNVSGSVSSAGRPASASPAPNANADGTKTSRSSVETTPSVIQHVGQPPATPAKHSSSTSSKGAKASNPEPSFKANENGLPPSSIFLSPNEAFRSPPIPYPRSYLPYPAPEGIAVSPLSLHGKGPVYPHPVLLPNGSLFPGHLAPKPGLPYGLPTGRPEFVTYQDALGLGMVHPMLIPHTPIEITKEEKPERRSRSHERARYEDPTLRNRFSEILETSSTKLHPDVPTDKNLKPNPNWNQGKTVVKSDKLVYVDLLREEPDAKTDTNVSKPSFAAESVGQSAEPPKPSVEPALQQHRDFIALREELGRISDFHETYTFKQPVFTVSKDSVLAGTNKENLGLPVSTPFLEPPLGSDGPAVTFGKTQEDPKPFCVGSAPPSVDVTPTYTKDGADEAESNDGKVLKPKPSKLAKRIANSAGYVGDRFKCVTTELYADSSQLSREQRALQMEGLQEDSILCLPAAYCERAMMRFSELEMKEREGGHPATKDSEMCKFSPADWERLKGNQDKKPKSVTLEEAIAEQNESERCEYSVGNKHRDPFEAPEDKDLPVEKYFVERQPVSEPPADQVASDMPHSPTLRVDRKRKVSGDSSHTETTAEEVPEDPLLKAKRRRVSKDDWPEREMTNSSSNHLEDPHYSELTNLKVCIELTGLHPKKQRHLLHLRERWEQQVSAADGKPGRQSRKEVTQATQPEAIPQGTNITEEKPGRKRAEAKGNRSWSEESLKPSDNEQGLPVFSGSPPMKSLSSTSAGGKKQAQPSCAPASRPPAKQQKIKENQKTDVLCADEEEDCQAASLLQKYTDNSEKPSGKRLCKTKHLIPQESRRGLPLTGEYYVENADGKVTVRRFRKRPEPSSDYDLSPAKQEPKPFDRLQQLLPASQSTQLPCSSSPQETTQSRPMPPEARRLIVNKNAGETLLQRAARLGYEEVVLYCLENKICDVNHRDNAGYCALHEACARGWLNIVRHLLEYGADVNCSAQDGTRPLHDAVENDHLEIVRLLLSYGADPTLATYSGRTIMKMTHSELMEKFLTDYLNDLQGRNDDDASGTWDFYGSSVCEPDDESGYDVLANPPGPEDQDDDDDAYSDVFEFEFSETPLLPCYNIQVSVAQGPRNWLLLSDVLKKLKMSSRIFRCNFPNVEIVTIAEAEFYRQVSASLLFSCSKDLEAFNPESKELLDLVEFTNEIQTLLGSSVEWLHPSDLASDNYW
UniProt Q9BSM1: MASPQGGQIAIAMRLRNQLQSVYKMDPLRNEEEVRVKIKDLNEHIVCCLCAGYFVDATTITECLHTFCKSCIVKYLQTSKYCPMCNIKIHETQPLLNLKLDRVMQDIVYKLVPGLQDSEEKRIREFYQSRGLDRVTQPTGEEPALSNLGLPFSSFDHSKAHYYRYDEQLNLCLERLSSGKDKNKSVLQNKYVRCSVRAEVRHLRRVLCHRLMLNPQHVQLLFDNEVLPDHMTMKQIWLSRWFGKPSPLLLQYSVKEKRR
UniProt Q01860: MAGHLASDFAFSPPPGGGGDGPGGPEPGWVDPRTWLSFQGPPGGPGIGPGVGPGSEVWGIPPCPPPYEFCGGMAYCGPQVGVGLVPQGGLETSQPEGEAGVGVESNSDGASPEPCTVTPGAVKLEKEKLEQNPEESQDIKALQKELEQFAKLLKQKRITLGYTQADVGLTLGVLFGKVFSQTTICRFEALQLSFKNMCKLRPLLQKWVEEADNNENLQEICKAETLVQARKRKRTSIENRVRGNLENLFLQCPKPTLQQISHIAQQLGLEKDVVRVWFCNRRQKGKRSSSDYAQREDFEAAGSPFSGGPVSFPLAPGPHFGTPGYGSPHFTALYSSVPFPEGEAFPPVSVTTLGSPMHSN
UniProt P68400: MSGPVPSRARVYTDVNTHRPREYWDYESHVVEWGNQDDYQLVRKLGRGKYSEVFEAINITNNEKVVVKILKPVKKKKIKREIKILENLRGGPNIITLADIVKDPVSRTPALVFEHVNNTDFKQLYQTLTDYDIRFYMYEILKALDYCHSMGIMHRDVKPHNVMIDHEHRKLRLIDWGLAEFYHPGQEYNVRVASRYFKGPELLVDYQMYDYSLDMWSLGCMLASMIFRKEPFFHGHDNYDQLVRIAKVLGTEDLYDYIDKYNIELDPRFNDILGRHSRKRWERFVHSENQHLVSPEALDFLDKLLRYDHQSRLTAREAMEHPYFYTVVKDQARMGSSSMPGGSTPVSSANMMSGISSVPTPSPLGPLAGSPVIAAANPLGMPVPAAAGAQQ
UniProt Q99496: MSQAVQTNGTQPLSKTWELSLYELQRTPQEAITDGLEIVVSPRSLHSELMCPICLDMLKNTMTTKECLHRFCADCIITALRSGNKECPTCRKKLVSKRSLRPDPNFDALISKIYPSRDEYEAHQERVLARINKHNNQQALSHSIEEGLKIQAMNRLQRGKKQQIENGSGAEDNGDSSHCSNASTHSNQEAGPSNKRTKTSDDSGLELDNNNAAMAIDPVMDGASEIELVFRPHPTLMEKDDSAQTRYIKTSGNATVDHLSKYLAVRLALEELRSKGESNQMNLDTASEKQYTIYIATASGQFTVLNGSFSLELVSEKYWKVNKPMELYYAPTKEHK
UniProt Q969R5: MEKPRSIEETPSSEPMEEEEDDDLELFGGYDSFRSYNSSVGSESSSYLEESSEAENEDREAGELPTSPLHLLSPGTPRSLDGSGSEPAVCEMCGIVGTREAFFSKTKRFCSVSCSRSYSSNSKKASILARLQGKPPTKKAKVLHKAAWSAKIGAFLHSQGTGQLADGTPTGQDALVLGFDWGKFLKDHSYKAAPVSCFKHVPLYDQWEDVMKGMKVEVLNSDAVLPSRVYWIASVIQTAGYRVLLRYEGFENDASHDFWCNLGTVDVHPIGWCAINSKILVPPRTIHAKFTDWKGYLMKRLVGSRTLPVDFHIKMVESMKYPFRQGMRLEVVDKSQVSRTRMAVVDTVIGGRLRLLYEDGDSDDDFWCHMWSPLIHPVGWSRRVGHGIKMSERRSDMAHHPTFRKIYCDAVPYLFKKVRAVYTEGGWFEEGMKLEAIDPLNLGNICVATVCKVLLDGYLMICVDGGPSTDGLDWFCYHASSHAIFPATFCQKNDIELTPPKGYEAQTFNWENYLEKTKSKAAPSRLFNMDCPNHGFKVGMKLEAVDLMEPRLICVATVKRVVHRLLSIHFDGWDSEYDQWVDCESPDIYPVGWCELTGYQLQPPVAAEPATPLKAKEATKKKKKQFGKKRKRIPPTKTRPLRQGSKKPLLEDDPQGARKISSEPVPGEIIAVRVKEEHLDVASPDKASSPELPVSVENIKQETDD
UniProt P63208: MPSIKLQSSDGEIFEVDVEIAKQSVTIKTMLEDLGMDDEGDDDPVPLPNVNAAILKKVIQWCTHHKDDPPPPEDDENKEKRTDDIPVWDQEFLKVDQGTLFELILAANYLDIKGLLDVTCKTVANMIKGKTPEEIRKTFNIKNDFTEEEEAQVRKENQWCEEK
UniProt Q93009: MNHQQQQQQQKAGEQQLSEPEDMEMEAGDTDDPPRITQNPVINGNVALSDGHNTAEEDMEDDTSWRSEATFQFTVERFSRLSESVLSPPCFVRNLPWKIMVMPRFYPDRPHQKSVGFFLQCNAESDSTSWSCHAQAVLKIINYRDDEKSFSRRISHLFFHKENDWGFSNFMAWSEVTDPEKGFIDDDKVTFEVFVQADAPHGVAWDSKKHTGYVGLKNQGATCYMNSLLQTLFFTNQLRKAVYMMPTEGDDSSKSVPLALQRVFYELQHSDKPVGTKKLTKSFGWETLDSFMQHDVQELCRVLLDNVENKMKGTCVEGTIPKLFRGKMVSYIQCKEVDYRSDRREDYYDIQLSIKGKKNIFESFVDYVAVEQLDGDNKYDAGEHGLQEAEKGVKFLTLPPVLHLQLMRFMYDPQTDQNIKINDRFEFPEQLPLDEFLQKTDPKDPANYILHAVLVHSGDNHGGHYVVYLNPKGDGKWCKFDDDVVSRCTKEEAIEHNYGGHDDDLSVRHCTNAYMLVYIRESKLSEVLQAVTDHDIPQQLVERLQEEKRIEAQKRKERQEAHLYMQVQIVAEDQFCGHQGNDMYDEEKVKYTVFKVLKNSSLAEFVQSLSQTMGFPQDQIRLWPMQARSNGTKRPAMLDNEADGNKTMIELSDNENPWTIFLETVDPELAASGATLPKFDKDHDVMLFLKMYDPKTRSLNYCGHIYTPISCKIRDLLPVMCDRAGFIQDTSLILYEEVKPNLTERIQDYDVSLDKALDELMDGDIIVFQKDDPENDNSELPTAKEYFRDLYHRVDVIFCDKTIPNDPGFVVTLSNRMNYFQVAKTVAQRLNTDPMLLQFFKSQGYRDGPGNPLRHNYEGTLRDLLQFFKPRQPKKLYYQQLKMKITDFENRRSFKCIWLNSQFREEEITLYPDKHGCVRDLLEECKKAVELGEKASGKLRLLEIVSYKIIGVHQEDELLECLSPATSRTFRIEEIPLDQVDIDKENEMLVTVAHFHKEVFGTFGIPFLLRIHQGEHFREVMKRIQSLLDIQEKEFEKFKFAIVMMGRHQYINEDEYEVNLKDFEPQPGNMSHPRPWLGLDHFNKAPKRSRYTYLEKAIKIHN
UniProt Q16531: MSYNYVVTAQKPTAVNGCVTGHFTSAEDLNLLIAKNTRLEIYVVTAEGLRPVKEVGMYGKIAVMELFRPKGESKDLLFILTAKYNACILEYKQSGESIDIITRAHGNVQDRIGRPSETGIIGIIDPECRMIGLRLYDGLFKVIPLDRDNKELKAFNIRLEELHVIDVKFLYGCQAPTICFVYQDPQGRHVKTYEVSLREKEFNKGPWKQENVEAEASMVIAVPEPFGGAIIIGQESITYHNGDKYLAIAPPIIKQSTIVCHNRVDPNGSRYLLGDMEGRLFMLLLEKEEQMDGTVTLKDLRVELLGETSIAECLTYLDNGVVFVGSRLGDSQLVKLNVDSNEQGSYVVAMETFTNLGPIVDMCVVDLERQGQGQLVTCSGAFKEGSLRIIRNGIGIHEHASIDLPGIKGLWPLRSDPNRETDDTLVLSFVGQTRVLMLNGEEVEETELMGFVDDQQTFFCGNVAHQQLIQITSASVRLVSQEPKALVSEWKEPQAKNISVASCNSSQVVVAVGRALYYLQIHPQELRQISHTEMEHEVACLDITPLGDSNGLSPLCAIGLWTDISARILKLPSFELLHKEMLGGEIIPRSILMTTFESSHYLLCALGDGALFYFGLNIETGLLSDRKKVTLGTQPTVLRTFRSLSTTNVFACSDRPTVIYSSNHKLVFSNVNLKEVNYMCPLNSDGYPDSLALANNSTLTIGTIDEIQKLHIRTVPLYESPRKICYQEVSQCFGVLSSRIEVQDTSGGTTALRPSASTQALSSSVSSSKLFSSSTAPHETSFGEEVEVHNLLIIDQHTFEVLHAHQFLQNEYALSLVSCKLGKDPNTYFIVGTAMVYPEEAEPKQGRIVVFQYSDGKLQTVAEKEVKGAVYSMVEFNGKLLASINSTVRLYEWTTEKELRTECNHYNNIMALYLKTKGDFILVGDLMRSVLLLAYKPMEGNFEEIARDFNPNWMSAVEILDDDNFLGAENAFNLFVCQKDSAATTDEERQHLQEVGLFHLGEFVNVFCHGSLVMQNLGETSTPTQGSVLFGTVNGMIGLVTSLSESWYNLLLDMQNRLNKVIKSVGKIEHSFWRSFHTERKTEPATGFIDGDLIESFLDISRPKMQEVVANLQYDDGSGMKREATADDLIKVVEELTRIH

Common to all, as to assay: affinity purification with mass spectrometry; endogenous immunoprecipitation (antibodies to PCGF1, BCOR, DPPA4, NANOG or OCT4) from nuclear lysate of undifferentiated NT2 cells, trypsin digest on beads, label-free mass spectrometry (Q Exactive), volcano plot against IgG beads
In assay [1] the target is NANOG (human (endogenous in NT2)) (UniProt Q9H9S0).
Assay [2] has as its target BCOR (human (endogenous in NT2)) (UniProt Q6W2J9).
The target in assay [3] is T1, DPPA4 (human (endogenous in NT2)) (UniProt Q7L190).
T1 sequence: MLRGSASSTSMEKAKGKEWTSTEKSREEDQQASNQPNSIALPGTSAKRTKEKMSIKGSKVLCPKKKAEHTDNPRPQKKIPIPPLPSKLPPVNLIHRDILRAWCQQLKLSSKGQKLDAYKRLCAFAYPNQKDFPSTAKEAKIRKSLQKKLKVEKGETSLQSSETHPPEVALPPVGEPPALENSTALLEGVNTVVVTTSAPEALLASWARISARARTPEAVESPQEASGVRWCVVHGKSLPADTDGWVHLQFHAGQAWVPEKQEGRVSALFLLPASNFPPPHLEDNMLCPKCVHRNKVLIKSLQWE

The target of assay [4] is PCGF1 (human (endogenous in NT2)) (UniProt Q9BSM1).
Assay [5] addresses OCT4 (human (endogenous in NT2)) (UniProt Q01860).

These are yes or no findings as the source states them, for the method shown. Binding seen in cells or lysates may run through a third protein. Here binding means that the protein was enriched with, or labelled near, the bait; the list need not be complete. For some assays here: No binding means not detected with the bait.

For the substance CSNK2A1 (from UniProt P68400 1-391), in assay [1], the binding result was “binds”.

Take RNF2 (from UniProt Q99496 1-336): the binding entry in assay [2] was “binds”; in assay [3] it was “no binding”.

Regarding L3MBTL2 (from UniProt Q969R5 1-705), in assay [4], the binding result was “no binding”.

Consider SKP1 (from UniProt P63208 1-163), for which the binding entry in assay [2] is listed as “binds”; in assay [3], “no binding”; in assay [4] it was “binds”; in assay [5], “no binding”.

For the substance BCOR (from UniProt Q6W2J9 1-1755), the binding result in assay [3] is on record as “no binding”; in assay [4], “binds”; in assay [5], “no binding”.

For the substance “PCGF4 (BMI1) (from UniProt P35226 1-326)”, the binding result in assay [1] is “binds”.

On to SMARCC2 (from UniProt Q8TAQ2 1-1214), for which the binding entry in assay [4] is recorded as “binds”.

Consider USP7 (from UniProt Q93009 1-1102), for which the binding result in assay [2] is “binds”; in assay [3] it was “no binding”; in assay [1], “binds”; in assay [4], “binds”; in assay [5] it was “no binding”.

Turning to PCGF1 (from UniProt Q9BSM1 1-259), the binding result in assay [2], in assay [3] and in assay [1] was “binds” each time.

In the case of DDB1 (from UniProt Q16531 1-1140), the binding result in assay [4] was “binds”.

As for NANOG (from UniProt Q9H9S0 1-305), in assay [4], the binding result was “binds”.
